Results taken from the supplement of paper PMC10849652.
Some of the results follow.

Amino acid sequences for entries named in this document (tags omitted). A change or cut given only in a name is not applied to a line headed by its entry.
UniProt P60059: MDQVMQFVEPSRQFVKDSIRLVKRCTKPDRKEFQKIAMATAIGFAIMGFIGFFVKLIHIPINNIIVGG
UniProt Q96I15: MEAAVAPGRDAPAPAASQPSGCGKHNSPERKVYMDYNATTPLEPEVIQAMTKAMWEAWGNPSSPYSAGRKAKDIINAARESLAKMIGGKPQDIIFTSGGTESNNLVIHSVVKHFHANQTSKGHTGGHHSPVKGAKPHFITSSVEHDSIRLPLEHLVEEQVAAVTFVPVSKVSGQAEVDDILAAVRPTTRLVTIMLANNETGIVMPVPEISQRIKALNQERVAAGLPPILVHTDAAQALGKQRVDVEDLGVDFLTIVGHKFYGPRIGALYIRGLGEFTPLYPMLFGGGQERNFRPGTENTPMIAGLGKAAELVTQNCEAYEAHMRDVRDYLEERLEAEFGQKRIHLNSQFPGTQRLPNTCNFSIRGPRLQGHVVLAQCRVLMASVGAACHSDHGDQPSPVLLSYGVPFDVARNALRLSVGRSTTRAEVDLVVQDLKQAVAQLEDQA
UniProt O95248: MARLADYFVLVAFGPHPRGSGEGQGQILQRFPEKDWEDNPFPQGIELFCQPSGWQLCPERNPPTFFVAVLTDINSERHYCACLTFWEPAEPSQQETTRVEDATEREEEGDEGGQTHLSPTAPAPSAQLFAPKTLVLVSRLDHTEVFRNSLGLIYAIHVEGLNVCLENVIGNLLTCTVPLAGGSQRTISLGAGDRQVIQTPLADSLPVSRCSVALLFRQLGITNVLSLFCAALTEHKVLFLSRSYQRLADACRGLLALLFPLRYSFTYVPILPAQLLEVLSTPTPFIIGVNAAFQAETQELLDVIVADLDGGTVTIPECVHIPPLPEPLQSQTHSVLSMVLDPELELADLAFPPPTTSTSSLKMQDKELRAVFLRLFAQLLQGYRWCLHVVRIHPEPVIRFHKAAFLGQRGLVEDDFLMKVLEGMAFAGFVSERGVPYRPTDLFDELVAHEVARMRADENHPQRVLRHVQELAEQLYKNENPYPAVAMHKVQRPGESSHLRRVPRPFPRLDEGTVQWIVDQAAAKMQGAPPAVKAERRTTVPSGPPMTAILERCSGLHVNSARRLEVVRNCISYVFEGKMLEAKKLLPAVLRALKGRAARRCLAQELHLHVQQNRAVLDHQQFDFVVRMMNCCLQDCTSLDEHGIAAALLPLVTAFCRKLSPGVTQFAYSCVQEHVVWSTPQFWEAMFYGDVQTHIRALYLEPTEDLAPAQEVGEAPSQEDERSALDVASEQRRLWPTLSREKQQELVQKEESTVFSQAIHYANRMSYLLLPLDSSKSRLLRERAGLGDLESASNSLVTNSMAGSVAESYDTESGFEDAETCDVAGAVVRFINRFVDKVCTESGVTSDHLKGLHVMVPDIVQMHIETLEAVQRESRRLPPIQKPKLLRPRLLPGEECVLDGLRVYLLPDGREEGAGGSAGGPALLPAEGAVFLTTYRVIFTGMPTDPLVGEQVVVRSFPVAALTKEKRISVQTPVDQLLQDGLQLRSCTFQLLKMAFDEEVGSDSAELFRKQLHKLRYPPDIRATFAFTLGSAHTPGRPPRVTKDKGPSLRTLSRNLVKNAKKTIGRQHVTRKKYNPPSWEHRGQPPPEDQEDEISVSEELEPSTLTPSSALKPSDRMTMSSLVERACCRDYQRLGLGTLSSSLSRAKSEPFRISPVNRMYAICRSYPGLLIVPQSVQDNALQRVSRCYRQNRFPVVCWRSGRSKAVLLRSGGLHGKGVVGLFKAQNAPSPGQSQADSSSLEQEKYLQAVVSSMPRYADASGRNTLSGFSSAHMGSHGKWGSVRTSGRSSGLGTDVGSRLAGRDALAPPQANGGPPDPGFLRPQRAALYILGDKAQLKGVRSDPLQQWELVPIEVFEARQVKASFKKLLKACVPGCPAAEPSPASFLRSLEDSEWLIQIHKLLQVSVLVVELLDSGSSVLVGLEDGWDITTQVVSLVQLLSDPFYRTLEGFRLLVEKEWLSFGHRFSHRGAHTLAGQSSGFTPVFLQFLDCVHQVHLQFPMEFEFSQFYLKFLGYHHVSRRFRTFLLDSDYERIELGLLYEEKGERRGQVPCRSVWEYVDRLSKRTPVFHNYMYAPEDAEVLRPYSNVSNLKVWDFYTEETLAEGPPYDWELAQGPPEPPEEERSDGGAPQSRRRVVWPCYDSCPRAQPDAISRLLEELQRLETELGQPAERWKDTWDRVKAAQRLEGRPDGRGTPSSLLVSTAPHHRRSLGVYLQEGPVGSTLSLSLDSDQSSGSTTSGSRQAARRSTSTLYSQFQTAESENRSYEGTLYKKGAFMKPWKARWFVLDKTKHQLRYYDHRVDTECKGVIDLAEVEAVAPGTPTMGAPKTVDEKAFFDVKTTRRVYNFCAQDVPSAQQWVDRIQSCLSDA
UniProt Q969E2: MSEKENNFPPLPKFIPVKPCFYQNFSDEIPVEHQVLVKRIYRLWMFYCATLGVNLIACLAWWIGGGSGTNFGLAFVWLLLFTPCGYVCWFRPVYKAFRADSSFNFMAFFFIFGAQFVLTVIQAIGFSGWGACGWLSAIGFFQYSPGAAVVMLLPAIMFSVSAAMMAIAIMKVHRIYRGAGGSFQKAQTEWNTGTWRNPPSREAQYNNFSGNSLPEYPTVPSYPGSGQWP
UniProt Q96BU1: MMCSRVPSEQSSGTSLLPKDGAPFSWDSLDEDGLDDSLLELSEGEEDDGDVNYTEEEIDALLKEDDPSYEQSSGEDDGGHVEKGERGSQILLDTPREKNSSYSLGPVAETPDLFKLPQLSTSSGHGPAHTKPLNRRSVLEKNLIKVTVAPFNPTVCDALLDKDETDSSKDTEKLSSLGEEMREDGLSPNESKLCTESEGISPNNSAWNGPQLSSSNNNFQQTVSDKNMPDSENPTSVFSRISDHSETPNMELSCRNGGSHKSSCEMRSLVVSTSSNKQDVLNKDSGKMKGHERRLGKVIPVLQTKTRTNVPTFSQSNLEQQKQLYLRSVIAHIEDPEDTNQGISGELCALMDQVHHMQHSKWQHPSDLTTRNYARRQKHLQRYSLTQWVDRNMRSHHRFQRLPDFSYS
UniProt P49903: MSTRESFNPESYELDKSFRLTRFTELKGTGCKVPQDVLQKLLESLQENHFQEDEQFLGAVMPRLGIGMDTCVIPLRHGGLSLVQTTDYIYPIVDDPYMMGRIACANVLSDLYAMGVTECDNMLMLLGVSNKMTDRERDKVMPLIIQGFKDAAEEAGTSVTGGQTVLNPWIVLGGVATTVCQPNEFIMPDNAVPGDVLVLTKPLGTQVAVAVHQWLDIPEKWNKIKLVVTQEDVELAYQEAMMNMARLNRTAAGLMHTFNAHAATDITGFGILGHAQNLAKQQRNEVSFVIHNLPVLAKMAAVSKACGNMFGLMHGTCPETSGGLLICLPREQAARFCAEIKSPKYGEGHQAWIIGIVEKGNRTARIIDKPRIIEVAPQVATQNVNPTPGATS
UniProt Q9UHR5: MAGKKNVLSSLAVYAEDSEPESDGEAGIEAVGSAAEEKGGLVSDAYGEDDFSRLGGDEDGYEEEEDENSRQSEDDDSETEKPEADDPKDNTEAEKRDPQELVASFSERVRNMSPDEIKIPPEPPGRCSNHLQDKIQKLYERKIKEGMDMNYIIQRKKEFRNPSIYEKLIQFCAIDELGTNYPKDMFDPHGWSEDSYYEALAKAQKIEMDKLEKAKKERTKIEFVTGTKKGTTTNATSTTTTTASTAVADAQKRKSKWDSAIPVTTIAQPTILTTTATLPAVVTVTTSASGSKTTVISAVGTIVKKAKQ
UniProt P21912: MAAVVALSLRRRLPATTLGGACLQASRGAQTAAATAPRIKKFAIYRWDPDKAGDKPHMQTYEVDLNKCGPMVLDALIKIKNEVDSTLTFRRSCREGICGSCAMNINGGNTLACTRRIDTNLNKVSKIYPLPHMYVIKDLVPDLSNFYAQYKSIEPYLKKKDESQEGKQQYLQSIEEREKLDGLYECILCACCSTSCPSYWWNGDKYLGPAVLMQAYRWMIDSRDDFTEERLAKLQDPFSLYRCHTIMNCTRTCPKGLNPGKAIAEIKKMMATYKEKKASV
UniProt Q99611, whole entry, looked up: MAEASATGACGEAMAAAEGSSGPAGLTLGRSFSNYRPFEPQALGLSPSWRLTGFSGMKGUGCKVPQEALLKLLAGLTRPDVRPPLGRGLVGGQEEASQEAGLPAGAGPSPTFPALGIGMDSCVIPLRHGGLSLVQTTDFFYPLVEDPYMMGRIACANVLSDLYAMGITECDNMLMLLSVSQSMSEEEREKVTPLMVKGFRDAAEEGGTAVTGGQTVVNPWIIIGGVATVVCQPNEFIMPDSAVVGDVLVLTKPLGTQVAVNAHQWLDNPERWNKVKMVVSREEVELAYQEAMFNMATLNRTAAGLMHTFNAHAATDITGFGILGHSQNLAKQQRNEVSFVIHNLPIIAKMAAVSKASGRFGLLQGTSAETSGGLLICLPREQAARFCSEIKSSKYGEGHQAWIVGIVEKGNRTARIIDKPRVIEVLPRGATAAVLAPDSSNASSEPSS
UniProt O94855: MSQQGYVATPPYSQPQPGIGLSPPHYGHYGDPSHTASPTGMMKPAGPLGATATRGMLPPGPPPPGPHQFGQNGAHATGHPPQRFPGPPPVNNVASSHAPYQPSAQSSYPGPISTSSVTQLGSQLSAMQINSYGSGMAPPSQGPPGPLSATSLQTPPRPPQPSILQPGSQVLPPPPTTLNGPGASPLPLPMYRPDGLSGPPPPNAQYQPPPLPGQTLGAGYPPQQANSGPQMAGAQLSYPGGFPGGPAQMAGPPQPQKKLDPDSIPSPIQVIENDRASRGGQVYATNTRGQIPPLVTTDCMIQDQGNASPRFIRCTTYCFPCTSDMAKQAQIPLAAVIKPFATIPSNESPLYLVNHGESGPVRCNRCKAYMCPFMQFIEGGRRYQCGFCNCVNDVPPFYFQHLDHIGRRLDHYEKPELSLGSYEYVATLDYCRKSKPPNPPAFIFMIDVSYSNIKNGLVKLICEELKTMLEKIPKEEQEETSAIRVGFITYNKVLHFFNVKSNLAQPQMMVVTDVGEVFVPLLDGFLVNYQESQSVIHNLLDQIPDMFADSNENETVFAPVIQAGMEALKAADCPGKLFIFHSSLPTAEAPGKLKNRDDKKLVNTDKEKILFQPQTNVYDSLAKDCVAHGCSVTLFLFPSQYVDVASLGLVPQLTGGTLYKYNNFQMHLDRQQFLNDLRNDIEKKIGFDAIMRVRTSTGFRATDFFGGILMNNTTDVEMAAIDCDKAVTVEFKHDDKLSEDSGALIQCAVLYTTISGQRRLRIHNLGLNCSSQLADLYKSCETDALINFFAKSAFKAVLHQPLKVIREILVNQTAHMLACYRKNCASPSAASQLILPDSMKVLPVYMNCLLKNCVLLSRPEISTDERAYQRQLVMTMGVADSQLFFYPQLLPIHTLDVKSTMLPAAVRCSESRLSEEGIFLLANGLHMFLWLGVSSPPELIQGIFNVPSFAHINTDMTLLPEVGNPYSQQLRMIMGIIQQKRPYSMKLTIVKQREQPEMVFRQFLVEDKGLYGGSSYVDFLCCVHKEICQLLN
UniProt Q14151: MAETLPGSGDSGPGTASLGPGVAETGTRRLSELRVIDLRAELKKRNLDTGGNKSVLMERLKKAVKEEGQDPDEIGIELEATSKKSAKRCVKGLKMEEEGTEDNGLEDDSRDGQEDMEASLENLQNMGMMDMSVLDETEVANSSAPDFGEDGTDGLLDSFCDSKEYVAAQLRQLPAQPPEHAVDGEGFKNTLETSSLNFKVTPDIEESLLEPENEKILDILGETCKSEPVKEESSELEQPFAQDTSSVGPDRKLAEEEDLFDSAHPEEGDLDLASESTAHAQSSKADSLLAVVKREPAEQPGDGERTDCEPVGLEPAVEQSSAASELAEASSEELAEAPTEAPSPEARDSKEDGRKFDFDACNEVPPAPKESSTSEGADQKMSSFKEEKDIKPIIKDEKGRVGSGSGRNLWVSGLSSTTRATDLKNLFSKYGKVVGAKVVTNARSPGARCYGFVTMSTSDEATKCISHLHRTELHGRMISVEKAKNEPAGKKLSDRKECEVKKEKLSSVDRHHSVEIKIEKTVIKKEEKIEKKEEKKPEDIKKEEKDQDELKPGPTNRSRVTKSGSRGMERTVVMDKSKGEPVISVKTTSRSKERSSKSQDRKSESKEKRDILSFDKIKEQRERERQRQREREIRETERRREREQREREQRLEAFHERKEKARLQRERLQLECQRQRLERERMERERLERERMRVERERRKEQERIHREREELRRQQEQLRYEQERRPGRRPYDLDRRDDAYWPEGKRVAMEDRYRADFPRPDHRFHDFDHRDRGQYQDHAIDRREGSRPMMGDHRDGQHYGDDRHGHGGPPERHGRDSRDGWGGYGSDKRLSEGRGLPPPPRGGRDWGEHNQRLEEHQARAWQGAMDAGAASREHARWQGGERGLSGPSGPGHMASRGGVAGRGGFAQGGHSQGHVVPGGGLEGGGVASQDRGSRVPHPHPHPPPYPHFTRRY
UniProt O60613, whole entry, looked up: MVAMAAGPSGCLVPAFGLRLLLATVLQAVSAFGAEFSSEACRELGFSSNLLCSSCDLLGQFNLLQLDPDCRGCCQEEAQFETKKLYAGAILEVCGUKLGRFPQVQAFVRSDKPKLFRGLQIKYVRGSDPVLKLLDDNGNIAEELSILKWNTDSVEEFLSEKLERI

How the values were obtained:
Test in all cases: log2 fold change, soluble protein after heating vs DMSO (PISA); higher = thermal stabilisation; K562 lysate, 10 uM; active = over 0.2 and 3.5 SD of the protein, either way, in both replicates (recomputed)
[1] = compound: CCCS(=O)(=O)Nc1ccc(F)c(C(=O)c2c[nH]c3ncc(-c4ccc(Cl)cc4)cc23)c1F [vemurafenib]
Procedure, shortened: (§1)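 To prepare the extract, K562 pellets were dounce-homogenised in PBS pH 7.4 with 1 mM MgCl2, giving crude material at 1 mg/mL protein. This was treated with 10 μM compound for 30 min, then heated in aliquots for 3 min over 48°C-58°C before pooling and addition of NP-40 to 0.5% at 4°C. Centrifugation at 21,000xg for 90 min left soluble protein in the supernatant, which TMTpro 16plex LC-MS/MS quantified with equalised channel sums. Results are log-two fold changes in thermal stability compared with solvent controls, from duplicates.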

[2] = compound: CCCS(=O)(=O)Nc1ccc(F)c(C(=O)c2c[nH]c3ncc(Cl)cc23)c1F
Procedure, shortened: as §1

[3] = compound: CCN(CCCOc1ccc2c(Nc3cc(CC(=O)Nc4cccc(F)c4)[nH]n3)ncnc2c1)CCOP(=O)(O)O [barasertib]
Procedure, shortened: as §1

[4] = compound: CC[C@@H]1C(=O)N(C)c2cnc(Nc3ccc(C(=O)NC4CCN(C)CC4)cc3OC)nc2N1C1CCCC1
Procedure, shortened: as §1

[5] = compound: CC[C@@H]1C(=O)N(C)c2cnc(Nc3ccc(C(=O)N[C@H]4CC[C@H](N5CCN(CC6CC6)CC5)CC4)cc3OC)nc2N1C(C)C [volasertib]
Procedure, shortened: as §1

[6] = compound: CCn1c(C(=O)N(C2CC2)C2CC2)cc2c3c(ncn3C)c(Nc3cc(C)n(C)n3)nc21
Procedure, shortened: as §1

[7] = compound: CCn1cc(-c2ccnc3[nH]c(-c4cccc(CN(C)C)c4)cc23)c(-c2ccc(NC(=O)N(C)C)cc2)n1
Procedure, shortened: as §1

[8] = compound: CN1CCC(CNc2ccc3ncc(-c4cccc(OC(F)(F)F)c4)n3n2)CC1
Procedure, shortened: as §1

[9] = compound: CN1CCN(CCOc2cc(OC3CCOCC3)c3c(Nc4c(Cl)ccc5c4OCO5)ncnc3c2)CC1 [saracatinib]
Procedure, shortened: as §1

[10] = compound: CN1CCN(c2nc(C3=C(c4c[nH]c5ccccc45)C(=O)NC3=O)c3ccccc3n2)CC1 [sotrastaurin]
Procedure, shortened: as §1

Measured: log2 fold change

SART1 (UniProt O43290)
inactive: [1] 0.009 | [2] 0.009 | [3] 0.006 | [4] 0.047 | [5] -0.004 | [6] -0.026 | [7] 0.001 | [8] -0.038 | [9] -0.004 | [10] -0.004

SEC61G (UniProt P60059)
inactive: [1] 0.015 | [2] -0.079 | [3] 0.175 | [4] 0.159 | [5] 0.033 | [6] -0.067 | [7] -0.118 | [8] 0.405 | [9] -0.276 | [10] -0.184

SDSL (UniProt Q96GA7)
inactive: [1] -0.034 | [2] 0.008 | [3] 0.039 | [4] -0.042 | [5] 0 | [6] 0.071 | [7] -0.141 | [8] 0.052 | [9] 0.014 | [10] -0.146

SACM1L (UniProt Q9NTJ5)
inactive: [1] -0.008 | [2] -0.004 | [3] 0.028 | [4] -0.022 | [5] -0.031 | [6] -0.017 | [7] -0.036 | [8] -0.143 | [9] 0.007 | [10] -0.017

SCLY (UniProt Q96I15)
inactive: [1] 0.015 | [2] 0.006 | [3] 0.019 | [4] -0.02 | [5] 0 | [6] -0.013 | [7] -0.005 | [8] 0.026 | [9] -0.02 | [10] -0.015

SEC23IP (UniProt Q9Y6Y8)
inactive: [1] -0.036 | [2] 0.017 | [3] -0.007 | [4] 0.008 | [5] -0.01 | [6] 0.002 | [7] 0.023 | [8] -0.03 | [9] 0.004 | [10] 0

SBF1 isoform 4 (UniProt O95248)
inactive: [1] 0.118 | [2] 0.012 | [3] 0.033 | [4] 0.071 | [5] -0.111 | [6] 0.014 | [7] -0.107 | [8] 0.029 | [9] 0.062 | [10] 0

SEC31A (UniProt D6REX3)
inactive: [1] -0.023 | [2] -0.002 | [3] 0.006 | [4] -0.025 | [5] -0.005 | [6] -0.001 | [7] -0.05 | [8] 0.024 | [9] -0.03 | [10] -0.02

SELENOH (UniProt Q8IZQ5)
inactive: [1] -0.012 | [2] -0.008 | [3] -0.043 | [4] 0.026 | [5] 0.008 | [6] 0.009 | [7] 0.158 | [8] -0.142 | [9] -0.067 | [10] 0.009

SCAMP4 (UniProt Q969E2)
inactive: [1] 0.05 | [2] 0.017 | [3] -0.015 | [4] 0.052 | [5] 0.065 | [6] -0.02 | [7] 0.055 | [8] 0.041 | [9] 0.049 | [10] -0.068

SEPTIN8 (UniProt Q92599)
inactive: [1] 0.021 | [2] 0.011 | [3] -0.008 | [4] -0.028 | [5] 0.024 | [6] -0.005 | [7] 0.002 | [8] 0.016 | [9] 0.005 | [10] -0.006

S100PBP (UniProt Q96BU1)
inactive: [1] -0.001 | [2] -0.072 | [3] 0.05 | [4] 0.06 | [5] 0.04 | [6] -0.01 | [7] 0.034 | [8] 0.03 | [9] 0.036 | [10] -0.033

SEPHS1 (UniProt P49903)
inactive: [1] 0.031 | [2] -0.003 | [3] 0.075 | [4] 0.024 | [5] -0.002 | [6] -0.012 | [7] 0.044 | [8] 0.029 | [9] -0.004 | [10] -0.045

SEH1L isoform 1 (UniProt Q96EE3)
inactive: [1] -0.029 | [2] -0.001 | [3] 0.004 | [4] 0.069 | [6] -0.015 | [7] -0.022 | [8] 0.021 | [9] -0.005 | [10] -0.01
active: [5] 0.216

SAP30BP (UniProt Q9UHR5)
inactive: [1] 0.019 | [2] 0 | [3] 0 | [4] 0.068 | [5] 0.011 | [6] -0.059 | [7] -0.039 | [8] 0.022 | [9] -0.015 | [10] -0.004

SDHC (UniProt Q99643)
inactive: [1] -0.035 | [2] -0.022 | [3] 0.031 | [4] -0.089 | [5] 0.044 | [6] 0.04 | [8] 0.156 | [9] 0.063 | [10] 0.062
active: [7] -0.307

SDHB (UniProt P21912)
inactive: [1] 0 | [2] 0.003 | [3] -0.026 | [4] 0.07 | [5] 0.009 | [6] 0.002 | [7] -0.031 | [8] 0.023 | [9] -0.015 | [10] -0.013

SCAMP3 isoform 2 (UniProt O14828)
inactive: [1] -0.02 | [2] -0.086 | [3] -0.256 | [4] 0.135 | [5] 0.001 | [6] 0.035 | [7] 0.005 | [8] -0.006 | [9] 0.008 | [10] 0.016

Seven successive records out of the list so far, for reference:
SEPTIN8 (UniProt Q92599)
inactive: [1] 0.021 | [2] 0.011 | [3] -0.008 | [4] -0.028 | [5] 0.024 | [6] -0.005 | [7] 0.002 | [8] 0.016 | [9] 0.005 | [10] -0.006

S100PBP (UniProt Q96BU1)
inactive: [1] -0.001 | [2] -0.072 | [3] 0.05 | [4] 0.06 | [5] 0.04 | [6] -0.01 | [7] 0.034 | [8] 0.03 | [9] 0.036 | [10] -0.033

SEPHS1 (UniProt P49903)
inactive: [1] 0.031 | [2] -0.003 | [3] 0.075 | [4] 0.024 | [5] -0.002 | [6] -0.012 | [7] 0.044 | [8] 0.029 | [9] -0.004 | [10] -0.045

SEH1L isoform 1 (UniProt Q96EE3)
inactive: [1] -0.029 | [2] -0.001 | [3] 0.004 | [4] 0.069 | [6] -0.015 | [7] -0.022 | [8] 0.021 | [9] -0.005 | [10] -0.01
active: [5] 0.216

SAP30BP (UniProt Q9UHR5)
inactive: [1] 0.019 | [2] 0 | [3] 0 | [4] 0.068 | [5] 0.011 | [6] -0.059 | [7] -0.039 | [8] 0.022 | [9] -0.015 | [10] -0.004

SDHC (UniProt Q99643)
inactive: [1] -0.035 | [2] -0.022 | [3] 0.031 | [4] -0.089 | [5] 0.044 | [6] 0.04 | [8] 0.156 | [9] 0.063 | [10] 0.062
active: [7] -0.307

SDHB (UniProt P21912)
inactive: [1] 0 | [2] 0.003 | [3] -0.026 | [4] 0.07 | [5] 0.009 | [6] 0.002 | [7] -0.031 | [8] 0.023 | [9] -0.015 | [10] -0.013

The listing continues:

SDCCAG8 (UniProt Q86SQ7)
inactive: [1] 0.021 | [2] -0.035 | [3] 0.045 | [4] 0.032 | [5] 0.13 | [6] -0.053 | [7] -0.006 | [8] 0.01 | [9] -0.009 | [10] -0.026

SEPTIN2 isoform 2 (UniProt Q15019)
inactive: [1] 0.008 | [2] -0.02 | [3] -0.025 | [4] 0.045 | [5] 0.007 | [6] -0.017 | [7] 0.08 | [8] 0.051 | [9] 0.01 | [10] 0.036

SEC13 isoform 3 (UniProt P55735)
inactive: [1] -0.001 | [2] -0.004 | [3] -0.031 | [4] -0.013 | [5] 0.007 | [6] 0.003 | [8] -0.042 | [9] -0.027 | [10] -0.015
active: [7] 0.507

SEPHS2 (UniProt Q99611)
inactive: [1] -0.008 | [2] -0.004 | [3] 0.015 | [4] 0.023 | [5] 0.02 | [6] 0.014 | [7] -0.036 | [8] -0.003 | [9] 0.008 | [10] -0.038

SEPTIN5 (UniProt G3XAH0)
inactive: [1] -0.077 | [2] -0.027 | [3] 0.04 | [4] -0.005 | [5] -0.032 | [6] 0.023 | [7] -0.007 | [8] 0.025 | [9] -0.036 | [10] -0.018

SCYL2 (UniProt Q6P3W7)
inactive: [1] -0.003 | [2] 0.01 | [3] 0.05 | [4] 0.081 | [5] -0.001 | [6] 0.02 | [7] -0.041 | [8] 0.015 | [9] 0.011 | [10] -0.034

SEC24D isoform 2 (UniProt O94855)
inactive: [1] -0.039 | [2] 0.027 | [3] -0.002 | [4] -0.032 | [5] -0.032 | [6] -0.011 | [7] -0.001 | [8] -0.009 | [9] 0.005 | [10] -0.025

SAFB2 (UniProt Q14151)
inactive: [1] -0.008 | [2] -0.031 | [3] -0.028 | [4] 0.027 | [5] 0.015 | [6] 0.006 | [7] -0.12 | [8] 0.069 | [9] -0.026 | [10] 0.01

SELENOF (UniProt O60613)
inactive: [1] -0.058 | [2] -0.026 | [3] 0.029 | [4] -0.055 | [5] 0.019 | [6] -0.04 | [7] -0.092 | [8] -0.027 | [9] -0.007 | [10] -0.005

SCRN3 (UniProt Q0VDG4)
inactive: [1] -0.009 | [2] 0.02 | [3] -0.018 | [4] 0.023 | [5] -0.012 | [6] -0.017 | [7] 0.011 | [8] -0.03 | [9] -0.007 | [10] 0.004

SCO1 (UniProt O75880)
inactive: [1] -0.027 | [2] -0.012 | [3] -0.008 | [4] -0.009 | [5] 0.025 | [6] -0.027 | [7] -0.01 | [8] 0.016 | [9] 0.006 | [10] 0.016

SCYL1 (UniProt Q96KG9)
inactive: [1] 0.054 | [2] -0.016 | [3] -0.038 | [4] 0.054 | [5] 0 | [6] 0.027 | [7] 0.039 | [8] 0.024 | [9] -0.009 | [10] 0.041
